Results are given in words; binding and its absence hold for the method and conditions named. Binding seen in cells or lysates may run through a third protein. For some assays here: Sequences can lack the tags named with a protein.
Key:
Experiment in all cases: co-IP; anti-FLAG immunoprecipitation of FLAG-tagged LARP proteins, mutants or fragments transiently expressed in HEK 293T; cells stimulated with complete growth media for 3 h (in Figure 5B with DMSO or 300 nM torin1); lysed in CHAPS-based extraction buffer with RNase A; western blot for endogenous RAPTOR, mTOR, PABP, eIF4E1, eIF4G1
[1] = biological target: FLAG-tagged human wildtype LARP5 (human) (UniProt Q92615)
[2] = biological target: T1, human wildtype LARP7 (human) (UniProt Q4G0J3)
T1 sequence: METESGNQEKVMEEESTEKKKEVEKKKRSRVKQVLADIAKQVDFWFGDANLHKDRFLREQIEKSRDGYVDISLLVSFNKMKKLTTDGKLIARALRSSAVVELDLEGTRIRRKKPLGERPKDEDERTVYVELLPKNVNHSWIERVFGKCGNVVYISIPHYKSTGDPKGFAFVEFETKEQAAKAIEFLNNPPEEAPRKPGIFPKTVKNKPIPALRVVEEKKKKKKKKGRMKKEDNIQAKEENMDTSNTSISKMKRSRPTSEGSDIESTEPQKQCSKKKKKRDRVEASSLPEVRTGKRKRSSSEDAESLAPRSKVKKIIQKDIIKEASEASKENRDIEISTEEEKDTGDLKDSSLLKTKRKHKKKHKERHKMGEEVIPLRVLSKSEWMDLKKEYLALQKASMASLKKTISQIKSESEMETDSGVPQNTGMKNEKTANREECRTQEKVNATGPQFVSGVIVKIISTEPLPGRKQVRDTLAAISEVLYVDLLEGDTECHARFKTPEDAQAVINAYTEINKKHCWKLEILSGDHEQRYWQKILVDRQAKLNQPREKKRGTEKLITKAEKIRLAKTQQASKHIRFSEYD

The chains behind the UniProt entries cited, without tags or fusion partners.
UniProt Q92615: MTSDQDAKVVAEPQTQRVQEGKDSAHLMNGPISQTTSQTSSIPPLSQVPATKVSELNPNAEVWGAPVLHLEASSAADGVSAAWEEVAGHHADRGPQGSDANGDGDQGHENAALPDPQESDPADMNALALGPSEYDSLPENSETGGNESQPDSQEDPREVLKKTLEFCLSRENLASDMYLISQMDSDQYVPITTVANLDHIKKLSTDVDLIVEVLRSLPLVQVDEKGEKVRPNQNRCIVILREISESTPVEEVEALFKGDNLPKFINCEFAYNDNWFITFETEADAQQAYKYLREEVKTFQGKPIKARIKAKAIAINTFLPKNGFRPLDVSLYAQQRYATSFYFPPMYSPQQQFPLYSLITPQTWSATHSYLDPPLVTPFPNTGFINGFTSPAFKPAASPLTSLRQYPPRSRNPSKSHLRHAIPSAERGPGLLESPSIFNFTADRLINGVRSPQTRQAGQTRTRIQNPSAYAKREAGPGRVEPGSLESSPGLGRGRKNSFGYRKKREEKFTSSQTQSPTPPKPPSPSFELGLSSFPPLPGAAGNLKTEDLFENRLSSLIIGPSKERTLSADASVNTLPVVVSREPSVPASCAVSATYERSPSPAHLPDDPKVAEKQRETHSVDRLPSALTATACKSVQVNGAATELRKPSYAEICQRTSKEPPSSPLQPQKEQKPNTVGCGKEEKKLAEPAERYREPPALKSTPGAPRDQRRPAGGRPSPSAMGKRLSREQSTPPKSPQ
UniProt Q71RC2: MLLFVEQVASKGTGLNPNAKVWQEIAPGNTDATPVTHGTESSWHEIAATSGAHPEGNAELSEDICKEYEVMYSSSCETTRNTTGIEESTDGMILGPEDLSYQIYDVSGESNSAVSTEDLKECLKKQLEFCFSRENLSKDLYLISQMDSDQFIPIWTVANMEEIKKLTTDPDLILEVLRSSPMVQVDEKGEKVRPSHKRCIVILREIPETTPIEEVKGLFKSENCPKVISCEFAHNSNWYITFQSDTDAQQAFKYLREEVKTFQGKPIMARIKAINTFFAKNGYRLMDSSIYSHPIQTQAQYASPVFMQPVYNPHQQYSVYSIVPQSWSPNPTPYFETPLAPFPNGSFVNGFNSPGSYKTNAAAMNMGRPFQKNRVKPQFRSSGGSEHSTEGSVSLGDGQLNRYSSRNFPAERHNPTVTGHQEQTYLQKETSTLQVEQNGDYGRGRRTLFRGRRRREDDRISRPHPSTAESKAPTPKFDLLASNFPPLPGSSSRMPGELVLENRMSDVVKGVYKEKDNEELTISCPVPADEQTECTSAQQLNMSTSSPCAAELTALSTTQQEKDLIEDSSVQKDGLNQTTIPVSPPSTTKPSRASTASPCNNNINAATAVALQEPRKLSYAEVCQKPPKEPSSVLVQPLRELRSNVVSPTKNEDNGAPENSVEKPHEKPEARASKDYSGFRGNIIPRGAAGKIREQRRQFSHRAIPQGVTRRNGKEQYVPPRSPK
UniProt Q8N122: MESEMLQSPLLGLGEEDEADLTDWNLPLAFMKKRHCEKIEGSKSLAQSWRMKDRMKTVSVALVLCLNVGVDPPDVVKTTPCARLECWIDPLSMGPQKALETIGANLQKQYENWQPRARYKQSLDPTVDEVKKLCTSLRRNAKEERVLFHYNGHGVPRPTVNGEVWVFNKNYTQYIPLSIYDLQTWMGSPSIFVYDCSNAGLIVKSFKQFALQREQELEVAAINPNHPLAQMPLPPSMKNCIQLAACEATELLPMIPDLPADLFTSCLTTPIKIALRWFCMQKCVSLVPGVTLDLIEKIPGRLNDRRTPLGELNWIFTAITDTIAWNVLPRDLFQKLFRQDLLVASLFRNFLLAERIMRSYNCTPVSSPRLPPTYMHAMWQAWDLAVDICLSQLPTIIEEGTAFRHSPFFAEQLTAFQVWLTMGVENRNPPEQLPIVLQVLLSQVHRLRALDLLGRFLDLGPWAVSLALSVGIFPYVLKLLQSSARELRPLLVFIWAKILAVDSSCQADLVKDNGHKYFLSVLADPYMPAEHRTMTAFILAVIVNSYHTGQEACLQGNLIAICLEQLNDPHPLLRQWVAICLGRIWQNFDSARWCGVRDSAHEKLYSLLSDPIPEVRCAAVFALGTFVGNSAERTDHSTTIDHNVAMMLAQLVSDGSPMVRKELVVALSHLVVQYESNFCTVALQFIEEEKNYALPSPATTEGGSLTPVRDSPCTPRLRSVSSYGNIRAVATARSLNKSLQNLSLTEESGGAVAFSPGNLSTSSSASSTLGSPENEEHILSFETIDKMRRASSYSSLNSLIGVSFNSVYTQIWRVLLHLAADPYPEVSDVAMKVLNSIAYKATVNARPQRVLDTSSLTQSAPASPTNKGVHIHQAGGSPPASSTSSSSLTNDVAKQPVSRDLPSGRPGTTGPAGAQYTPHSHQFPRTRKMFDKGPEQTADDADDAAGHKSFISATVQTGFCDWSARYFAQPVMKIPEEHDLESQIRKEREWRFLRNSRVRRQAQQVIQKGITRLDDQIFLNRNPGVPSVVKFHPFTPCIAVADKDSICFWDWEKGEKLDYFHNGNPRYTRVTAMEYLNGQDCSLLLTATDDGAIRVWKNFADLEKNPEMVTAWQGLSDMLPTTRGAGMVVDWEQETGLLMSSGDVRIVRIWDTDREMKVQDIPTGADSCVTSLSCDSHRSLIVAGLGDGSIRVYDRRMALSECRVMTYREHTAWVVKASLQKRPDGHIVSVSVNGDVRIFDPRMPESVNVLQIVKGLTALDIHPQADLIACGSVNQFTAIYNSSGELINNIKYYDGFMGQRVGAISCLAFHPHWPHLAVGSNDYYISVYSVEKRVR

[3] = biological target: T2, FLAG-tagged human wildtype La (human) (UniProt P05455)
T2 sequence: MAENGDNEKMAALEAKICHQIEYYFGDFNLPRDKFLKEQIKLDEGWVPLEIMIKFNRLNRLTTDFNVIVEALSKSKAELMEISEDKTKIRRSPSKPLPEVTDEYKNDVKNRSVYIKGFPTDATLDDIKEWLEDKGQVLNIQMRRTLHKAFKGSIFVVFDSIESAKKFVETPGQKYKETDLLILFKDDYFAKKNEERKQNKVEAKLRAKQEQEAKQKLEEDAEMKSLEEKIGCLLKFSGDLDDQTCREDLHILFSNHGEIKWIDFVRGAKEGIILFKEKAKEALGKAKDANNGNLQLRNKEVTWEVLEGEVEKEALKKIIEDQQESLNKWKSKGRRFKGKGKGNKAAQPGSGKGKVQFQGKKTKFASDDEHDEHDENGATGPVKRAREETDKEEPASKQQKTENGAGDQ

[4] = biological target: T3, human wildtype LARP6 (human) (UniProt Q9BRS8)
T3 sequence: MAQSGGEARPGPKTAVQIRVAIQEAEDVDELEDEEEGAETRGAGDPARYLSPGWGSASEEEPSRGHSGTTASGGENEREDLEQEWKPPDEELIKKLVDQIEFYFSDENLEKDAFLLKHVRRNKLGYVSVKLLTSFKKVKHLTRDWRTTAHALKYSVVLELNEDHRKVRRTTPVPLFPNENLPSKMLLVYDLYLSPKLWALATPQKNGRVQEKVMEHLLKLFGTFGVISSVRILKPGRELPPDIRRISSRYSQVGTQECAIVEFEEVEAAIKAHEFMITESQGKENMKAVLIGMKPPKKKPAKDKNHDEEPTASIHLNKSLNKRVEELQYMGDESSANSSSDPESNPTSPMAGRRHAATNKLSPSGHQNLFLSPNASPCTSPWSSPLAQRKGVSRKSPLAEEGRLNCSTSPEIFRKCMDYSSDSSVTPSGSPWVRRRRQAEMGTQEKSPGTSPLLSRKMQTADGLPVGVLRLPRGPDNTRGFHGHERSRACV

[5] = biological target: FLAG-tagged human wildtype LARP4 (human) (UniProt Q71RC2)

Measured: binding

regulatory associated protein of mTOR (RAPTOR), endogenous (from UniProt Q8N122 1-1335)
no binding: all assays above

Source: publication PMC8034618
